# Percent effect of library compounds

The chains behind the UniProt entries cited, without tags or fusion partners.
UniProt P9WPC5, whole entry: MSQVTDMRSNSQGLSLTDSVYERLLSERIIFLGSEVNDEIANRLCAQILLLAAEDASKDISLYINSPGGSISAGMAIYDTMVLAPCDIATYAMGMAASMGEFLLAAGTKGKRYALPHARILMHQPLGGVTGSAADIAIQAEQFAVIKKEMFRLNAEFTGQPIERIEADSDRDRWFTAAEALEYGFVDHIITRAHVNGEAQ
UniProt P9WPC3, whole entry partner: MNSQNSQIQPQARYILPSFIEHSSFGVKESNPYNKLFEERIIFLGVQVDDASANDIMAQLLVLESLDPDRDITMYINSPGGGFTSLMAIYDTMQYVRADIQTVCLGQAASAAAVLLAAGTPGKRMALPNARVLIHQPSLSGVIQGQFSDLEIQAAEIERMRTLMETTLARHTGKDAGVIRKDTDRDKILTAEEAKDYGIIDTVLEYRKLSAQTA
UniProt P9WFT3, whole entry: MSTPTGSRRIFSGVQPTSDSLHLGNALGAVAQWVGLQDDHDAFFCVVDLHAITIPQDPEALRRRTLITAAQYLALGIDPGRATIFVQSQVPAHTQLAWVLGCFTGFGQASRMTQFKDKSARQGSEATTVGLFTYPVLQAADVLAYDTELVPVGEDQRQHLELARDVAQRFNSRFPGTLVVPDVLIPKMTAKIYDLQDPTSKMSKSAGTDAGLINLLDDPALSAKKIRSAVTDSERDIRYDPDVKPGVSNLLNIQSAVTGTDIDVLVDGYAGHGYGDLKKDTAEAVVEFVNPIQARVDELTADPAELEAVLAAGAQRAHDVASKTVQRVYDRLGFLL
UniProt P9WNZ1, whole entry: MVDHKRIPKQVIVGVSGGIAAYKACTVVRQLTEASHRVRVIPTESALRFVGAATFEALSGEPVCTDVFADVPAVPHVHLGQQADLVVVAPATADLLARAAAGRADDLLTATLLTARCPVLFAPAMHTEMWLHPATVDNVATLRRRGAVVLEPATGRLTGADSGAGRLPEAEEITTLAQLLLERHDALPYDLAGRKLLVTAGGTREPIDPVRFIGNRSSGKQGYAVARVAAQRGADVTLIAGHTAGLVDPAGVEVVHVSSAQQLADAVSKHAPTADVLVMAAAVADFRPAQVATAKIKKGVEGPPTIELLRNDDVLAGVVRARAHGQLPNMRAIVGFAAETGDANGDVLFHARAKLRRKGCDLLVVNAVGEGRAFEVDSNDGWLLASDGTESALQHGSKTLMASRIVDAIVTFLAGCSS

ClpP1P2: 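Protease assay of ClpP1P2, read by the AMC dye that it sets free. Target: ClpP1P2, Mycobacterium tuberculosis (UniProt P9WPC5 and UniProt P9WPC3). Compounds at 50 µM. Direction is inferred from only a few compounds that gave an IC50; most scored high, so higher reads as stronger inhibition. Most other retested compounds had strongly negative values. Of about 69,000 compounds tested this way, about 10 (0.015%) reached 50% or more in at least one test.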
Toxoplasma: 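Assay of Toxoplasma gondii numbers, read through their beta-galactosidase reporter with a colour substrate. Compounds at 10 µM. The record gives no direction; the compounds picked for IC50 retests had high values, so higher reads as fewer parasites. Size under these conditions: about 67,000 compounds, about 260 of them at 50% or above in at least one test.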
MtTrpRS: 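Tryptophan-tRNA ligase, Mycobacterium tuberculosis (UniProt P9WFT3). Enzyme assay of tryptophanyl-tRNA synthetase; the read-out is not stated. Tested at 10 µM. Direction is not recorded; retested compounds ran higher, which suggests that high means inhibition. Of about 65,000 compounds tested this way, about 64 (0.098%) reached 50% or more in at least one test.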
CoaBC: 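Coenzyme A biosynthesis protein CoaBC, Mycobacterium tuberculosis (UniProt P9WNZ1). Enzyme assay of CoaBC with a phosphate dye (Biomol Green) read at 650 nm. Compounds at 30 µM. Direction is inferred from only a few compounds that gave an IC50; most scored high, so higher reads as stronger inhibition. Most strong results did not repeat in a second test. About 67,000 compounds were tested under these conditions; 0.06% (about 40) showed 50% or more at least once.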

Each number is a percent effect as filed. How 0% and 100% were set is not recorded. Most values in the screen are low, and negative values occur. The compounds are a random part of those screened.

For Cc1cc(C)c(CNC(=O)CC2CCCO2)c(=O)[nH]1 (centres undefined) the result was ClpP1P2: -29.27%; Toxoplasma: -13.14%; MtTrpRS: -2.912%; CoaBC: 2.558%. With CC(C)C(NC(=O)Cn1nc2c(cc1=O)CCCC2)C(=O)O (centres undefined) the screen gave ClpP1P2: -3.389%; Toxoplasma: -6.397%; MtTrpRS: 0.7779%; CoaBC: -2.105%. c1ccc(COc2cccc(CNC3CCc4ncnn4C3)c2)cc1 (centres undefined) gave ClpP1P2: -19.78%; Toxoplasma: -43.51%; MtTrpRS: 16.44%; CoaBC: 5.526%. With O=S(=O)(NCCCn1cncn1)c1ccc2c(c1)CCCC2 the screen gave ClpP1P2: -0.412%; Toxoplasma: -0.06423%; MtTrpRS: -0.9266%; CoaBC: -2.45%. Result for Cc1cc(C(=O)NC2CCN(c3nnc(C)c(C)c3C#N)CC2)no1 was ClpP1P2: 0.4999%; Toxoplasma: 6.081%; MtTrpRS: 1.738%; CoaBC: 3.439%. For CC(C)(C)c1cc(NC(=O)CN(Cc2cccs2)Cc2cccs2)on1 the result was ClpP1P2: 6.032%; Toxoplasma: 0.5945%; MtTrpRS: -0.6399%; CoaBC: 7.097%. With O=C(C[C@H]1[C@H]2CN(C(=O)c3cccnc3)C[C@@H]12)Nc1cccnc1 the screen gave ClpP1P2: -2.034%; MtTrpRS: -5.05%; CoaBC: 1.833%.

With Cc1nc(C)n(CC2CCCN2CCC(=O)NC2CCCC2)n1 (centres undefined) the screen gave ClpP1P2: -23.99%; Toxoplasma: 0.1258%; MtTrpRS: -3.245%; CoaBC: -1.364%. Result for Fc1ccc(-c2nccnc2C2CCCNC2)cc1 (centres undefined) was ClpP1P2: 4.484%; Toxoplasma: 10.32%; MtTrpRS: 6.588%; CoaBC: 7.787%. Cn1nccc1CCC(=O)N1CCCC(Cc2cccnc2)C1 (centres undefined) gave ClpP1P2: -2.136%; Toxoplasma: -30.82%; CoaBC: 3.883%. With COc1cc(N2CC3(CCN(S(C)(=O)=O)C3)C2)ncn1.O=C(O)C(F)(F)F the screen gave Toxoplasma: -0.9029%. For CCCS(=O)(=O)N1Cc2ccnn2CC(c2nc(C)no2)C1.O=C(O)C(F)(F)F (centres undefined) the result was Toxoplasma: 0.252%. Result for O=C(O)C(F)(F)F.O=C1CC(c2cccnc2)C2(CCN(S(=O)(=O)C3CC3)CC2)N1 (centres undefined) was Toxoplasma: 11.24%. Cc1[nH]c(-c2ccccc2)nc1C(=O)N1CC[C@H](CO)[C@@H](O)C1 read ClpP1P2: 20.39%; Toxoplasma: -62.91%; MtTrpRS: 12.86%; CoaBC: 3.99%.

For CCOC(=O)N1CCCC2(CCCNC2)C1.Cl (centres undefined) the result was Toxoplasma: -8.965%. [H][C@]12CCN(C(=O)c3cccc(C)c3)C[C@@]1([H])OCCN(c1ncccn1)C2 read Toxoplasma: 1.356%. For c1coc(-c2nc(CN3CCOC(Cn4cccn4)C3)cs2)c1 (centres undefined) the result was ClpP1P2: -4.813%; Toxoplasma: -8.494%; MtTrpRS: -1.331%; CoaBC: 1.956%. N#Cc1ccc(NC2CCN(c3ncccn3)CC2)cc1C(F)(F)F read ClpP1P2: 2.916%; Toxoplasma: 10.95%; MtTrpRS: 1.511%; CoaBC: 3.24%. Result for CCOCC1CN(C(=O)c2cccs2)Cc2cnn(CC3CC3)c21 (centres undefined) was ClpP1P2: -0.3516%; Toxoplasma: -6.564%; CoaBC: 2.927%. Result for CCn1ncc(CN2CCCC(n3c(=O)oc4ccccc43)C2)c1C (centres undefined) was ClpP1P2: -0.191%; MtTrpRS: -3.87%; CoaBC: 0.7884%. For C[C@@H]1CN(C(=O)CCc2cnn(C)c2)C[C@@]1(O)C1CCC1 the result was ClpP1P2: -11.92%; Toxoplasma: 14.49%; MtTrpRS: -1.639%; CoaBC: -5.623%.

The values are deposited in ChEMBL (CHEMBL3988442, “University of Dundee, Small-Polar-MMV Screening Library” (2021)).